Results are given in words; binding and its absence hold for the method and conditions named. In cells and extracts the contact can be indirect. Here binding means that the protein was enriched with, or labelled near, the bait; the list need not be complete. Sequences can lack the tags named with a protein. Values belong to the molecule of their own block, whether it stands above or below them.
Molecular target: FLAG-tagged wild-type hnRNPAB (heterogeneous nuclear ribonucleoprotein A/B), full-length (human) (UniProt Q99729)
Experiment: affinity purification with mass spectrometry; lysates of 293T cells expressing FLAG-tagged hnRNPAB, IP with anti-FLAG antibody crosslinked to protein A/G magnetic beads, overnight at 4 °C, eluate analysed by LC-MS

The chains behind the UniProt entries cited, without tags or fusion partners.
UniProt Q99729: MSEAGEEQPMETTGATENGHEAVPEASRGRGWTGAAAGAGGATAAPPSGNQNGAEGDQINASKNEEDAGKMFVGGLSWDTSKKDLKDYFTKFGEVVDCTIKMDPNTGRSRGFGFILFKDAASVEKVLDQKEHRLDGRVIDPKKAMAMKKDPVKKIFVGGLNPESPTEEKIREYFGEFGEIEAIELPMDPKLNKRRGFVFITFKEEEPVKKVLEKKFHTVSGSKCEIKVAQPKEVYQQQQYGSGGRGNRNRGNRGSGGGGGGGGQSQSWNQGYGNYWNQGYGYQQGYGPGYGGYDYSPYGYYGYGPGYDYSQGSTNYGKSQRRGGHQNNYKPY
UniProt Q14258: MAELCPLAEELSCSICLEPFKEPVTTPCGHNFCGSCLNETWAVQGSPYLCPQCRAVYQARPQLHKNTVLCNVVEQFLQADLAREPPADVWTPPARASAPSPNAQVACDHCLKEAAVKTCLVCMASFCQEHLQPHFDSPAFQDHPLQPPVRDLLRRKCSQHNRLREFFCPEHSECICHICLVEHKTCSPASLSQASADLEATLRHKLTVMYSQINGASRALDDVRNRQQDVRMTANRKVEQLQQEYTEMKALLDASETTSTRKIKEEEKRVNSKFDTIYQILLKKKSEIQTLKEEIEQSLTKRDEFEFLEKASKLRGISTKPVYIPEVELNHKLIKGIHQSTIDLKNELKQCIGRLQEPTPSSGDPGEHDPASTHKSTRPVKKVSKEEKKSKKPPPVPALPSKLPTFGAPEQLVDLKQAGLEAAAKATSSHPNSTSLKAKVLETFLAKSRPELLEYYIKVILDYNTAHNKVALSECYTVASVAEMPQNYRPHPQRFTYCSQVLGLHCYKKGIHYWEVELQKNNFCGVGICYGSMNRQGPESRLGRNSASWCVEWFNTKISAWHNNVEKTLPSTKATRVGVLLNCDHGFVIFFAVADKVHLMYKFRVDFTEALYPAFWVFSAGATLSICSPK

- binding: binds
Molecule: TRIM25 (tripartite motif-containing protein 25) found with FLAG-hnRNPAB in 293T cells (from UniProt Q14258 1-630) (enzyme)

- binding: binds
B1: MKRN2 found with FLAG-hnRNPAB in 293T cells (enzyme, UniProt Q9H000 1-416)
chain: MSTKQITCRYFMHGVCREGSQCLFSHDLANSKPSTICKYYQKGYCAYGTRCRYDHTRPSAAAGGAVGTMAHSVPSPAFHSPHPPSEVTASIVKTNSHEPGKREKRTLVLRDRNLSGMAERKTQPSMVSNPGSCSDPQPSPEMKPHSYLDAIRSGLDDVEASSSYSNEQQLCPYAAAGECRFGDACVYLHGEVCEICRLQVLHPFDPEQRKAHEKICMLTFEHEMEKAFAFQASQDKVCSICMEVILEKASASERRFGILSNCNHTYCLSCIRQWRCAKQFENPIIKSCPECRVISEFVIPSVYWVEDQNKKNELIEAFKQGMGKKACKYFEQGKGTCPFGSKCLYRHAYPDGRLAEPEKPRKQLSSQGTVRFFNSVRLWDFIENRESRHVPNNEDVDMTELGDLFMHLSGVESSEP

From article PMC12767015
